No constants are given. Whether binding was seen depends on the method and setting.

Here are results for one substance from PMC8894135.

This experiment has as its target Cgo2 (ALPR1_12690), bacterial two-hybrid fusion (Algoriphagus machipongonensis) (UniProt A3HTA9). In words: two-hybrid; bacterial two-hybrid (BACTH), T18 and T25 adenylate cyclase fusions at N and C termini in E. coli BTH101; X-gal spot assay and ONPG β-galactosidase assay (Miller units); induction 1.0 mM IPTG, 8 h, 30 °C.

For “Cgo1 (ALPR1_12695), bacterial two-hybrid fusion (from UniProt A3HTB0 1-498)”, the binding entry was “no binding”.
